Measurements reported in PubChem BioAssay AID1259405 (NCATS, 2018)
The deposit covers about 50,000 reagents; this is an unselected part. About 4,000 of all reagents (8%) were called active. 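Mouse siRNA library applied to hamster cells; one well for each siRNA.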 A number with no mark means an inactive call. Reagents against one gene are numbered here. Reagent sequences are not shown.

Purpose: 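Mouse-designed siRNAs used to find CHO productivity engineering targets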 (primary screen)
Cells: Chinese hamster CHO-K1 ovary cells with stable secreted eGFP expression
Reagents: single siRNA against mouse genes, 0.8 pmol siRNA per well (2 µl of 400 nM stock)
Time to read-out: 3 days
Detection: 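Per-well intracellular GFP measured by laser scanning cytometry, plus viability from ATP luminescence, each relative to plate median of non-targeting control wells, in %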
Reading the numbers: GFP, % of control: higher = more GFP per well, higher productivity; viability (ATP), % of control: higher = more viable cells (more ATP)
Hit rule: 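Called active when intracellular GFP, relative to negative control, is at or above 120%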

Target gene | siRNA no. | GFP, % of control | viability (ATP), % of control
Nme1 | 1 | 121 (active) | 102
Nme1 | 2 | 48.6 | 66.8
Nme1 | 3 | 85.9 | 77.9
Scn3a | 1 | 72.8 | 70.1
Scn3a | 2 | 85.5 | 50.6
Scn3a | 3 | 95.2 | 85.1
4930550C14Rik | 1 | 36.5 | 49.3
4930550C14Rik | 2 | 89.7 | 71
4930550C14Rik | 3 | 78.8 | 83.1
Dynll1 | 1 | 82.1 | 81.2
Dynll1 | 2 | 140 (active) | 79.7
Dynll1 | 3 | 66.8 | 69.7
Ogg1 | 1 | 104 | 110
Ogg1 | 2 | 51.4 | 76.4
Ogg1 | 3 | 80.3 | 83.9
Dock9 | 1 | 78.9 | 46
Dock9 | 2 | 90.3 | 98.2
Dock9 | 3 | 45.3 | 58
Slc9a6 | 1 | 118 | 63.5
Slc9a6 | 2 | 76.7 | 78.8
Slc9a6 | 3 | 87.3 | 78.4
Kdm2b | 1 | 82.7 | 66.7
Kdm2b | 2 | 94.5 | 71.8
Kdm2b | 3 | 91 | 77.2
Gm527 | 1 | 71.7 | 89.3
Gm527 | 2 | 90.2 | 89
Gm527 | 3 | 85.8 | 74.1
Cdc6 | 1 | 66.9 | 73.4
Cdc6 | 2 | 89.7 | 78.3
Cdc6 | 3 | 112 | 81
Tex2 | 1 | 51.6 | 74.8
Tex2 | 2 | 2.77 | 279
Tex2 | 3 | 190 (active) | 108
Glis2 | 1 | 61.6 | 43.3
Glis2 | 2 | 80 | 66
Glis2 | 3 | 88.7 | 80.9
Ephx4 | 1 | 77.8 | 71.2
Ephx4 | 2 | 94.2 | 87.9
Ephx4 | 3 | 71 | 63.5
Mrps18c | 1 | 84.3 | 77.6
Mrps18c | 2 | 145 (active) | 87.7
Mrps18c | 3 | 115 | 67.6
Or4a68 | 1 | 181 (active) | 55.2
Or4a68 | 2 | 98.7 | 65.4
Or4a68 | 3 | 42.1 | 102
Lysmd1 | 1 | 86.7 | 90.4
Lysmd1 | 2 | 35.3 | 43.8
Lysmd1 | 3 | 102 | 82.7
Or8b1d | 1 | 126 (active) | 98.1
Or8b1d | 2 | 65.9 | 61.6
Or8b1d | 3 | 88.9 | 67
Ints12 | 1 | 82.3 | 87.1
Ints12 | 2 | 36.1 | 49.2
Ints12 | 3 | 102 | 107
Lpin2 | 1 | 73.1 | 70.5
Lpin2 | 2 | 75.3 | 84
Lpin2 | 3 | 50.2 | 54.6

Look-ups from above.
Value of Dock9 #2 in “viability (ATP), % of control”: 98.2
Cdc6 #2, viability (ATP), % of control → 78.3
Under “GFP, % of control”, Scn3a #2 is entered as 85.5
Under “GFP, % of control”, Nme1 #3 is entered as 85.9
Entry for Slc9a6 #1 in “GFP, % of control”: 118
Dynll1 #3, GFP, % of control → 66.8
